Values quoted from earlier work as cited in patent publication US6160166A, “Phosphonated agents and their antiangiogenic and antitumorigenic use” (priority 1999, dated 2000).
The name of at least one read-out is uncertain.

Conditions: suramin; cited from earlier work

Cc1ccc(C(=O)Nc2ccc(S(=O)(=O)O)c3cc(S(=O)(=O)O)cc(S(=O)(=O)O)c23)cc1NC(=O)c1cccc(NC(=O)Nc2cccc(C(=O)Nc3cc(C(=O)Nc4ccc(S(=O)(=O)O)c5cc(S(=O)(=O)O)cc(S(=O)(=O)O)c45)ccc3C)c2)c1 [suramin]
metabolic clearance: 45 to 55 days
